Results as given in the supplement of paper PMC8920030.
This continues a long series; more values of the same kind are listed elsewhere. Where a SMILES comes first, the peptide text is derived from it. Bridges are numbered along the chain shown (N, C = ends). [ ]: non-standard residue; d: D form. The star is where a group is joined. Heptanoyl(5-Me) = CCC(C)CCCC(=O)*; Dab = NCC[C@H](N)C(=O)O

What was measured:
Details in all cases: growth mode: biofilm, 24 h; exposure time: 24 h
tobramycin [1] = compound: T1, NC[C@H]1O[C@H](O[C@H]2[C@H](O)[C@@H](O[C@H]3O[C@H](CO)[C@@H](O)[C@H](N)[C@H]3O)[C@H](N)C[C@@H]2N)[C@H](N)C[C@@H]1O [tobramycin]; assay: minimum concentration eradicating biofilm below detection limit (MCK-E); higher = more biofilm tolerance
Method: (§1)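 Clinical P. aeruginosa isolates were grown as static biofilms for 24 h at 37 °C in LB in half-area 96-well plates, then exposed for 24 h to tobramycin at 1, 4, 16, 64, 256 or […]. Surviving CFU were counted by spotting serial dilutions. MCK is the lowest tested concentration giving the stated log reduction in CFU versus an untreated control; '>1024' means the reduction was not reached at the top dose, and 1 is the lowest dose tested (≤1).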

colistin [2] = compound: T2, CCC(C)CCCC(=O)N[C@@H](CCN)C(=O)N[C@H](C(=O)N[C@@H](CCN)C(=O)N[C@H]1CCNC(=O)[C@H]([C@@H](C)O)NC(=O)[C@H](CCN)NC(=O)[C@H](CCN)NC(=O)[C@H](CC(C)C)NC(=O)[C@@H](CC(C)C)NC(=O)[C@H](CCN)NC1=O)[C@@H](C)O [colistin]; assay: minimum concentration of killing, 2-log CFU reduction of biofilm (MCK99); higher = more biofilm tolerance
Method: (§2)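 Clinical P. aeruginosa isolates were grown as static biofilms for 24 h at 37 °C in LB in half-area 96-well plates, then exposed for 24 h to colistin at 1, 4, 16, 64, 256 or […]. Surviving CFU were counted by spotting serial dilutions. MCK is the lowest tested concentration giving the stated log reduction in CFU versus an untreated control; '>1024' means the reduction was not reached at the top dose, and 1 is the lowest dose tested (≤1).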

tobramycin [3] = compound: T1, tobramycin; assay: as above
Method: as §1

colistin [4] = compound: T2, colistin; assay: minimum concentration eradicating biofilm below detection limit (MCK-E); higher = more biofilm tolerance
Method: as §2

colistin [5] = compound: T2, colistin; assay: minimum concentration of killing, 4-log CFU reduction of biofilm (MCK99.99); higher = more biofilm tolerance
Method: as §2

colistin [6] = compound: T2, colistin; assay: minimum concentration of killing, 1-log CFU reduction of biofilm (MCK90); higher = more biofilm tolerance
Method: as §2

tobramycin [7] = compound: T1, tobramycin; assay: as above
Method: as §1

tobramycin [8] = compound: T1, tobramycin; assay: minimum concentration of killing, 4-log CFU reduction of biofilm (MCK99.99); higher = more biofilm tolerance
Method: as §1

Row | Test System | minimum concentration eradicating biofilm below detection limit (tobramycin [1]) | minimum concentration of killing (colistin [2]) | minimum concentration of killing (tobramycin [3]) | minimum concentration eradicating biofilm below detection limit (colistin [4]) | minimum concentration of killing (colistin [5]) | minimum concentration of killing (colistin [6]) | minimum concentration of killing (tobramycin [7]) | minimum concentration of killing (tobramycin [8])
1 | Pseudomonas aeruginosa clinical isolate CH2707 | > 1020 µg/mL | 256 µg/mL | > 1020 µg/mL | 256 µg/mL | 256 µg/mL | 64 µg/mL | > 1020 µg/mL | > 1020 µg/mL
2 | Pseudomonas aeruginosa clinical isolate ZG314777 | 64 µg/mL | 64 µg/mL | 16 µg/mL | 256 µg/mL | 256 µg/mL | 64 µg/mL | 16 µg/mL | 64 µg/mL
3 | Pseudomonas aeruginosa clinical isolate MD9120 | 64 µg/mL | 256 µg/mL | 16 µg/mL | 256 µg/mL | 256 µg/mL | 64 µg/mL | 4 µg/mL | 64 µg/mL
4 | Pseudomonas aeruginosa clinical isolate M70652746 | 256 µg/mL | 256 µg/mL | 256 µg/mL | 256 µg/mL | 256 µg/mL | 256 µg/mL | 256 µg/mL | 256 µg/mL
5 | Pseudomonas aeruginosa clinical isolate CH4916 | 1020 µg/mL | 256 µg/mL | 256 µg/mL | 256 µg/mL | 256 µg/mL | 256 µg/mL | 256 µg/mL | 1020 µg/mL
6 | Pseudomonas aeruginosa clinical isolate CH5478 | 1020 µg/mL | 256 µg/mL | 256 µg/mL | 256 µg/mL | 256 µg/mL | 256 µg/mL | 64 µg/mL | 1020 µg/mL
7 | Pseudomonas aeruginosa clinical isolate CH3797 | > 1020 µg/mL | 256 µg/mL | 1020 µg/mL | 256 µg/mL | 256 µg/mL | 64 µg/mL | 16 µg/mL | 1020 µg/mL
8 | Pseudomonas aeruginosa clinical isolate CH5267 | > 1020 µg/mL | 256 µg/mL | 16 µg/mL | 256 µg/mL | 256 µg/mL | 4 µg/mL | ≤ 1 µg/mL | 256 µg/mL
9 | Pseudomonas aeruginosa clinical isolate CF609_Iso4 | > 1020 µg/mL | 16 µg/mL | 1020 µg/mL | 64 µg/mL | 64 µg/mL | 16 µg/mL | 256 µg/mL | > 1020 µg/mL
10 | Pseudomonas aeruginosa clinical isolate MD8672 | 256 µg/mL | 256 µg/mL | 16 µg/mL | 256 µg/mL | 256 µg/mL | 256 µg/mL | 4 µg/mL | 256 µg/mL
11 | Pseudomonas aeruginosa clinical isolate MHH1883 | > 1020 µg/mL | 64 µg/mL | 64 µg/mL | 64 µg/mL | 64 µg/mL | 64 µg/mL | ≤ 1 µg/mL | 256 µg/mL
12 | Pseudomonas aeruginosa clinical isolate PSAE2325 | 64 µg/mL | 256 µg/mL | 4 µg/mL | 256 µg/mL | 256 µg/mL | 256 µg/mL | 4 µg/mL | 4 µg/mL
13 | Pseudomonas aeruginosa clinical isolate CH2735 | 256 µg/mL | 64 µg/mL | 4 µg/mL | 256 µg/mL | 256 µg/mL | 64 µg/mL | ≤ 1 µg/mL | 256 µg/mL
14 | Pseudomonas aeruginosa clinical isolate PSAE1642 | 256 µg/mL | 256 µg/mL | 16 µg/mL | 256 µg/mL | 256 µg/mL | 256 µg/mL | 16 µg/mL | 64 µg/mL
15 | Pseudomonas aeruginosa clinical isolate F2394 | > 1020 µg/mL | 64 µg/mL | > 1020 µg/mL | 256 µg/mL | 256 µg/mL | ≤ 1 µg/mL | 1020 µg/mL | > 1020 µg/mL
16 | Pseudomonas aeruginosa clinical isolate PSAE1438 | 256 µg/mL | 256 µg/mL | 16 µg/mL | 256 µg/mL | 256 µg/mL | 64 µg/mL | ≤ 1 µg/mL | 16 µg/mL
17 | Pseudomonas aeruginosa clinical isolate MHH16563 | > 1020 µg/mL | 64 µg/mL | 256 µg/mL | 64 µg/mL | 64 µg/mL | 16 µg/mL | 64 µg/mL | 1020 µg/mL
18 | Pseudomonas aeruginosa clinical isolate CH3906 | 16 µg/mL | 256 µg/mL | 4 µg/mL | 256 µg/mL | 256 µg/mL | 256 µg/mL | ≤ 1 µg/mL | 16 µg/mL
19 | Pseudomonas aeruginosa clinical isolate F2128 | 64 µg/mL | 256 µg/mL | 64 µg/mL | 256 µg/mL | 256 µg/mL | 256 µg/mL | 64 µg/mL | 64 µg/mL
20 | Pseudomonas aeruginosa clinical isolate F2234 | 256 µg/mL | 256 µg/mL | 16 µg/mL | 256 µg/mL | 256 µg/mL | 64 µg/mL | 4 µg/mL | 256 µg/mL

Row | Test System | minimum concentration eradicating biofilm below detection limit (tobramycin [1]) | minimum concentration of killing (colistin [2]) | minimum concentration of killing (tobramycin [3]) | minimum concentration eradicating biofilm below detection limit (colistin [4]) | minimum concentration of killing (colistin [5]) | minimum concentration of killing (colistin [6]) | minimum concentration of killing (tobramycin [7]) | minimum concentration of killing (tobramycin [8])
21 | Pseudomonas aeruginosa clinical isolate CH4786 | 64 µg/mL | 256 µg/mL | 4 µg/mL | 256 µg/mL | 256 µg/mL | 256 µg/mL | 4 µg/mL | 4 µg/mL
22 | Pseudomonas aeruginosa clinical isolate F2166 | 16 µg/mL | 256 µg/mL | 4 µg/mL | 256 µg/mL | 256 µg/mL | 256 µg/mL | ≤ 1 µg/mL | 4 µg/mL
23 | Pseudomonas aeruginosa clinical isolate CH4757 | 64 µg/mL | 64 µg/mL | 16 µg/mL | 256 µg/mL | 256 µg/mL | 64 µg/mL | ≤ 1 µg/mL | 64 µg/mL
24 | Pseudomonas aeruginosa clinical isolate CH5528 | 1020 µg/mL | 64 µg/mL | 64 µg/mL | 256 µg/mL | 64 µg/mL | 64 µg/mL | 64 µg/mL | 1020 µg/mL
25 | Pseudomonas aeruginosa clinical isolate ZG302451 | 256 µg/mL | 256 µg/mL | 4 µg/mL | 256 µg/mL | 256 µg/mL | 64 µg/mL | 4 µg/mL | 256 µg/mL
26 | Pseudomonas aeruginosa clinical isolate ZG302431 | 256 µg/mL | 256 µg/mL | 16 µg/mL | 256 µg/mL | 256 µg/mL | 256 µg/mL | 4 µg/mL | 64 µg/mL
27 | Pseudomonas aeruginosa clinical isolate ZG302442 | 256 µg/mL | 256 µg/mL | 256 µg/mL | 256 µg/mL | 256 µg/mL | 64 µg/mL | 256 µg/mL | 256 µg/mL
28 | Pseudomonas aeruginosa clinical isolate PSAE1872 | 1020 µg/mL | 64 µg/mL | 4 µg/mL | 256 µg/mL | 256 µg/mL | 16 µg/mL | 4 µg/mL | 64 µg/mL
29 | Pseudomonas aeruginosa clinical isolate MHH16208 | 256 µg/mL | 256 µg/mL | 4 µg/mL | 256 µg/mL | 256 µg/mL | 256 µg/mL | ≤ 1 µg/mL | 256 µg/mL
30 | Pseudomonas aeruginosa clinical isolate F2856 | > 1020 µg/mL | 64 µg/mL | > 1020 µg/mL | 256 µg/mL | 256 µg/mL | 16 µg/mL | 1020 µg/mL | > 1020 µg/mL
31 | Pseudomonas aeruginosa clinical isolate CH2685 | 256 µg/mL | 256 µg/mL | 16 µg/mL | 256 µg/mL | 256 µg/mL | 256 µg/mL | 4 µg/mL | 64 µg/mL
32 | Pseudomonas aeruginosa clinical isolate CH2682 | 1020 µg/mL | 256 µg/mL | 64 µg/mL | 1020 µg/mL | 1020 µg/mL | 64 µg/mL | 16 µg/mL | 1020 µg/mL
33 | Pseudomonas aeruginosa clinical isolate M70604538 | 256 µg/mL | 1020 µg/mL | 4 µg/mL | 1020 µg/mL | 1020 µg/mL | 256 µg/mL | 4 µg/mL | 16 µg/mL
34 | Pseudomonas aeruginosa clinical isolate PSAE2126 | 64 µg/mL | 256 µg/mL | ≤ 1 µg/mL | 256 µg/mL | 256 µg/mL | 256 µg/mL | ≤ 1 µg/mL | 64 µg/mL
35 | Pseudomonas aeruginosa clinical isolate ZG314738 | 256 µg/mL | 256 µg/mL | 64 µg/mL | 256 µg/mL | 256 µg/mL | 256 µg/mL | 64 µg/mL | 64 µg/mL
36 | Pseudomonas aeruginosa clinical isolate CH4443 | > 1020 µg/mL | 256 µg/mL | > 1020 µg/mL | 256 µg/mL | 256 µg/mL | 256 µg/mL | > 1020 µg/mL | > 1020 µg/mL
37 | Pseudomonas aeruginosa clinical isolate MHH16459 | > 1020 µg/mL | 256 µg/mL | 256 µg/mL | 256 µg/mL | 256 µg/mL | 256 µg/mL | 256 µg/mL | > 1020 µg/mL
38 | Pseudomonas aeruginosa clinical isolate CH4914 | 256 µg/mL | 64 µg/mL | ≤ 1 µg/mL | 256 µg/mL | 64 µg/mL | 4 µg/mL | ≤ 1 µg/mL | 256 µg/mL
39 | Pseudomonas aeruginosa clinical isolate MHH15280 | 1020 µg/mL | 256 µg/mL | 64 µg/mL | 256 µg/mL | 256 µg/mL | 256 µg/mL | 64 µg/mL | 1020 µg/mL
40 | Pseudomonas aeruginosa clinical isolate F2230 | 64 µg/mL | 256 µg/mL | 16 µg/mL | 1020 µg/mL | 256 µg/mL | 64 µg/mL | 16 µg/mL | 64 µg/mL
